# Source: PubChem BioAssay AID504847 (National Center for Advancing Translational Sciences (NCATS), 2011)
# Amino acid sequences for entries named in this document (tags omitted). A change or cut given only in a name is not applied to a line headed by its entry.
# UniProt P11473: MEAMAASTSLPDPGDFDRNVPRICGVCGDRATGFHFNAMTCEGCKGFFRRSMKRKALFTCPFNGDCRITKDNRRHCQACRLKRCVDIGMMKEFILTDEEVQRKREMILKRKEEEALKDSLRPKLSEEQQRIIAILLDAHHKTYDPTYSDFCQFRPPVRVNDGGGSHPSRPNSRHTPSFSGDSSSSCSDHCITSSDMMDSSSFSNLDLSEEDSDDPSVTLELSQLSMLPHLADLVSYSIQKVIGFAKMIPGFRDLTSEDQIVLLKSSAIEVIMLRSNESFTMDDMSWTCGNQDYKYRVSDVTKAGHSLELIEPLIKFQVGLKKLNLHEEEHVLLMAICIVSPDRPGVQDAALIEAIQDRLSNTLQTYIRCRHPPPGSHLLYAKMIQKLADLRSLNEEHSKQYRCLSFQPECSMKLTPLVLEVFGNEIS
# Among all 400,000 compounds or so, about 3,700 (0.93%) were called active. The shares of active, inactive and inconclusive entries below differ from those in the screen. Calls come from the whole dose curve; as a rule, active = well fitted inhibition curve with a large enough effect; inconclusive = small, poorly fitted or top-dose-only effect, or another doubt; inactive = no such curve, though single readings can be large or run the other way. Where the call is inconclusive, the potency comes from a doubtful curve fit. Some compounds were tested as several samples or in several runs, with calls that do not always agree. Where a SMILES comes first, the peptide text is derived from it. The star is where a group is joined. CH2Cl = ClC*
# Biological target: Vitamin D3 receptor (Homo sapiens) (UniProt P11473)
# Assay: Inhibitors of the vitamin D receptor (VDR): qHTS
# Conditions: VDR-SRC2-3 peptide fluorescence polarization, 2 h; max response, negative = inhibition: active compounds read low
# Excerpt: The vitamin D receptor (VDR) is a ligand-activated transcription factor and is partially responsible for the regulation of the endocrine system. This includes the transcriptional regulation of genes involved in the production of the parathyroid hormone (PTH) and the regulation of the blood calcium level. High levels of PHT can cause hypercalcemia in the case of primary and tertiary hyperparathyroidism. The VDR-mediated gene regulation, activated by its ligand 1,25-dihydroxyvitamin D3 (1,25-(OH)2D3), is governed by the recruitment of coactivators. Our hypothesis is that small molecules, with the ability to inhibit the interaction between VDR and certain coactivators, are able to selectively modulate VDR-mediated transcription. Our long term objective is the application these VDR-coactivator inhibitors to study the role of VDR-coactivator binding for specific VDR regulated genes. Ultimately, these molecules can be developed into new treatments for hypercalcemic hyperparathyroidism. No small molecule or non-peptide inhibitors are known for the VDR-coactivator interaction.
# In a collaboration between the University of Wisconsin, Milwaukee and the NIH Chemical Genomics Center (NCGC) a HTS-compatible enzymatic assay was developed. The assay uses fluorescence polarization as its read-out to measure the inhibition between VDR and coregulator peptide SRC2-3 exerted by small molecules. This assay was used to screen the NIH Molecular Libraries Small Molecule Repository (MLSMR).
# NIH Chemical Genomics Center [NCGC]
# NIH Molecular Libraries Probe Centers Network [MLPCN]
# Assay Submitter (PI): Alexander Arnold, University of Wilwaukee
# Both solutions are kept at 4 deg C and protected from light and dispensed using a Kalypsys dispenser. Then 23nl of compounds and controls are added with Kalypsys pintool. […] Plate is centrifuged at 1000 RPM for 15 seconds to remove any residual bubbles. The plate is then incubate at ambient room temperature for 2 hours.
# % is set by controls: 0 for no effect and ±100 for the full control effect; potency is the fitted concentration of half-maximal effect.
SMILES,Potency,"max response, negative = inhibition"
O=C(CNC(=O)[C@@H]1Cc2ccccc2CN1)NC1CCCCC1,"inconclusive: 79.4 µM [inhibitor, partial curve, poor fit]",
O=C(Oc1ccccc1/C=C\C(=O)c1cc2ccccc2o1)c1ccccc1,"inconclusive: 25.1 µM [inhibitor, partial curve, poor fit]",
O=C(Nc1nc2cc3c(cc2s1)OCCO3)C1=COCCO1,"inconclusive: 28.2 µM [inhibitor, single point]",
N#CCCN(C(=O)COC(=O)c1ccc2c(=O)n3c(nc2c1)CCC3)c1ccccc1,"inconclusive: 70.8 µM [inhibitor, partial curve, poor fit]",
O=C1NN(c2cccc(Br)c2)C(=O)/C1=C\c1ccc(O)cc1,"inconclusive: 70.8 µM [inhibitor, partial curve, poor fit]",
CNC(=O)c1ccc2c(c1)nnn2C,"inconclusive: 100 µM [inhibitor, partial curve, poor fit]",
O=C(CCSc1nc2ccccc2o1)N1CCOCC1,"inconclusive: 39.8 µM [inhibitor, single point]",
CC(=O)NC(CC(C)C)C(=O)NC(Cc1ccccc1)C(=O)CCl (stereo not drawn) (Ac-Leu-Phe-CH2Cl; configuration not given here),"inconclusive: 89.1 µM [inhibitor, single point]",
COc1ccccc1Nc1n[nH]c(=S)s1,"inconclusive: 89.1 µM [inhibitor, single point]",
O=[N+]([O-])c1cc(Cc2ccccc2)cc(C=Nc2ccc(N3CCOCC3)cc2)c1O,"inconclusive: 89.1 µM [inhibitor, single point]",
O=C1c2c([N+](=O)[O-])cc([N+](=O)[O-])cc2S(=O)N1Cc1ccccc1 (stereo not drawn),"inconclusive: 63.1 µM [inhibitor, partial curve, poor fit]",
CC(C)CC(=O)NC(NCC1CCCO1)C(Cl)(Cl)Cl (stereo not drawn),"inconclusive: 100 µM [inhibitor, single point]",
COc1cccc(NC(=S)NNC(=O)Cn2nc(C(F)F)cc2C(F)F)c1,,inactive: -2.43%
Cc1ccc(C)c(Oc2ncnc(N)c2[N+](=O)[O-])c1,"inconclusive: 89.1 µM [inhibitor, single point]",
CS(=O)(=O)c1sc2nc(-c3cccs3)cc(-c3ccccc3)c2c1N,"inconclusive: 28.2 µM [inhibitor, full curve, poor fit]",
O=C1Oc2ccccc2C(=O)C1C(CC(O)c1ccc(-c2ccc(Br)cc2)cc1)c1ccccc1 (stereo not drawn),active: 31.6 µM,
Cc1cc(C)nc(NN2C(=O)C=CC2=O)n1,"inconclusive: 89.1 µM [inhibitor, single point]",
COc1ccc(C(=O)N/N=C/c2cn[nH]c2-c2ccc(OC)cc2OC)cc1,"inconclusive: 100 µM [inhibitor, single point]",
Oc1ccccc1C1C=C(c2ccc3c(c2)OCO3)NC(c2ccc(F)c(Br)c2)N1 (stereo not drawn),"inconclusive: 100 µM [inhibitor, single point]",
COc1cccc(/C=N/NC(=O)c2ccc(N3CCCC3=O)cc2)c1,"inconclusive: 17.8 µM [inhibitor, partial curve, poor fit]",
COc1cccc(C2C3CN(C)CC=C3C(C#N)=C(N)C2(C#N)C#N)c1OC (stereo not drawn),,inactive: 1.42%
N#CCC(=O)Nc1sc2c(c1C(N)=O)CCCC2,,inactive: -22.5%

SMILES,Potency,"max response, negative = inhibition"
COc1cc(OC)c(C2CC(=O)N3CN(c4ccccc4)CSC3=C2C#N)cc1OC (stereo not drawn),active: 10 µM,
CC(C)NC(=O)NC(=O)CSc1ccc(S(=O)(=O)N2CCCC2)cn1,"inconclusive: 89.1 µM [inhibitor, single point]",
CCOC(=O)C1=C(C)Nc2nnnn2C1c1cccnc1 (stereo not drawn),"inconclusive: 35.5 µM [inhibitor, single point]",
O=C(c1ccc(COc2ccccc2[N+](=O)[O-])o1)N1CCCCCC1,,inactive: 0.864%
O=C(NCCSc1ccc(Br)cc1)c1ccccc1,"inconclusive: 89.1 µM [inhibitor, single point]",
Cc1onc(-c2ccccc2)c1C(=O)NN1CCOCC1,,inactive: -14.2%
COc1ccc(S(=O)(=O)N(C)C)cc1NC(=O)c1ccc2c(c1)NC(=O)C(C)S2 (stereo not drawn),"inconclusive: 0.355 µM [inhibitor, full curve, poor fit]",
CCOC(=O)c1sc(=S)n(C)c1NC(=O)c1ccc(OC)cc1,active: 50.1 µM,
COc1cccc2c1C(=O)C=C(C)C2=O,active: 39.8 µM,
C[C@@]12CCC=C[C@H]1[C@H](c1ccccc1Br)N(Cc1ccccc1)C2=O,active: 50.1 µM,
Cn1nnnc1SCC(=O)c1ccc(Br)s1,"inconclusive: 89.1 µM [inhibitor, single point]",
CCSc1nc2n(n1)C(c1ccc(C(=O)O)cc1)C(C(=O)Nc1ccccc1C)=C(C)N2 (stereo not drawn),,inactive: 5.01%
CC(=O)Nc1ccc(OS(=O)(=O)c2ccc([N+](=O)[O-])cc2)cc1,"inconclusive: 89.1 µM [inhibitor, partial curve, poor fit]",
CO/N=C/NC(=O)c1ccc([N+](=O)[O-])c(CS(=O)(=O)c2ccc(Cl)cc2)c1,"inconclusive: 8.91 µM [inhibitor, single point]",
O=C(N/N=C\c1cccc([N+](=O)[O-])c1O)C1COc2ccccc2O1 (stereo not drawn),,inactive: 5.4%
CCc1ccc(N2CC(C(=O)Nc3ccc(C)c(S(=O)(=O)N4CCOCC4)c3)CC2=O)cc1 (stereo not drawn),,inactive: 0.504%
COc1ccccc1N(CC(=O)NCCc1ccccc1)C(=O)CCC(=O)Nc1cc(C)ccn1,,inactive: 6.72%
Cc1coc2c1C(=O)C(=O)c1c-2ccc2c(C)cccc12,"inconclusive: 63.1 µM [inhibitor, partial curve, poor fit]",
COc1ccccc1Nc1ccc(Nc2ccccc2OC)nn1,,inactive: -0.633%
CCc1ccc(S(=O)(=O)Nc2ccc(O)c3ccccc23)cc1,"inconclusive: 50.1 µM [inhibitor, partial curve]",
CCOc1cc(/C=C2\C(=O)N(Cc3ccco3)C(C)=C2C(=O)OC)ccc1O,"inconclusive: 50.1 µM [inhibitor, partial curve, poor fit]",

# 13 entries from above, as tab-separated lines:
SMILES	Potency	max response, negative = inhibition
COc1cccc2c1C(=O)C=C(C)C2=O	active: 39.8 µM	
C[C@@]12CCC=C[C@H]1[C@H](c1ccccc1Br)N(Cc1ccccc1)C2=O	active: 50.1 µM	
Cn1nnnc1SCC(=O)c1ccc(Br)s1	inconclusive: 89.1 µM [inhibitor, single point]	
CCSc1nc2n(n1)C(c1ccc(C(=O)O)cc1)C(C(=O)Nc1ccccc1C)=C(C)N2 (stereo not drawn)		inactive: 5.01%
CC(=O)Nc1ccc(OS(=O)(=O)c2ccc([N+](=O)[O-])cc2)cc1	inconclusive: 89.1 µM [inhibitor, partial curve, poor fit]	
CO/N=C/NC(=O)c1ccc([N+](=O)[O-])c(CS(=O)(=O)c2ccc(Cl)cc2)c1	inconclusive: 8.91 µM [inhibitor, single point]	
O=C(N/N=C\c1cccc([N+](=O)[O-])c1O)C1COc2ccccc2O1 (stereo not drawn)		inactive: 5.4%
CCc1ccc(N2CC(C(=O)Nc3ccc(C)c(S(=O)(=O)N4CCOCC4)c3)CC2=O)cc1 (stereo not drawn)		inactive: 0.504%
COc1ccccc1N(CC(=O)NCCc1ccccc1)C(=O)CCC(=O)Nc1cc(C)ccn1		inactive: 6.72%
Cc1coc2c1C(=O)C(=O)c1c-2ccc2c(C)cccc12	inconclusive: 63.1 µM [inhibitor, partial curve, poor fit]	
COc1ccccc1Nc1ccc(Nc2ccccc2OC)nn1		inactive: -0.633%
CCc1ccc(S(=O)(=O)Nc2ccc(O)c3ccccc23)cc1	inconclusive: 50.1 µM [inhibitor, partial curve]	
CCOc1cc(/C=C2\C(=O)N(Cc3ccco3)C(C)=C2C(=O)OC)ccc1O	inconclusive: 50.1 µM [inhibitor, partial curve, poor fit]	
